# From PubChem BioAssay AID504467 (National Center for Advancing Translational Sciences (NCATS), 2011)
# Hit rate of the full screen: of about 330,000 compounds, about 7,700 (2.3%) were called active. Inconclusive results, whose numbers are uncertain, are shown with a selection of clear calls. Calls come from the whole dose curve; as a rule, active = well fitted inhibition curve with a large enough effect; inconclusive = small, poorly fitted or top-dose-only effect, or effect the other way; inactive = flat fitted curve, though single readings scatter. Where the call is inconclusive, the potency comes from a doubtful curve fit.
# Assay: qHTS screen for small molecules that inhibit ELG1-dependent DNA repair in human embryonic kidney (HEK293T) cells expressing luciferase-tagged ELG1; note: nearly all actives have a fitted effect of over 55% in size
# Settings: HEK293T ELG1-luciferase reporter, luminescence, 16 h, DNA damage induced by 5-fluorouridine; activity change, negative = inhibition: at 46.1 µM (top of the series)
# Method in brief: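 HEK293T cells expressing luciferase-tagged ELG1 (2,000/well) received 5-Fluorouridine plus compound or DMSO for 16 hr at 37 °C. Luciferase was read by ONE-Glo luminescence after 30 min at room temperature.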
# % is set by controls: 0 for no effect and ±100 for the full control effect; potency is the fitted concentration of half-maximal effect.
Compound,"activity change, negative = inhibition",Potency
O=C(Nc1ccccc1N1CCCC1)c1ccccc1Cl,inactive: 7.08%,–
COc1ccc(-c2nc3ccc(C(=O)NCCCN4CCOCC4)cc3nc2-c2ccc(OC)cc2)cc1,–,"inconclusive: 3.26 µM [inhibitor, partial curve, poor fit]"
COc1ccccc1/C=C/CN1CCN(Cc2ccc(F)cc2)C(CCO)C1 (configuration not stated),inactive: -8.51%,–
CCN(CC(=O)Nc1c(F)cccc1F)C(=O)c1ccc2c(c1)S(=O)(=O)N=C1CCCCCN12,–,"inconclusive: 0.517 µM [activator, partial curve, poor fit]"
CC(=O)Nc1nc(C(=O)O)cs1,–,"inconclusive: 29.1 µM [activator, partial curve, poor fit]"
COc1ccc(N=C2SC(CC(=O)Nc3ccccc3F)C(=O)N2Cc2ccco2)cc1 (configuration not stated),–,active: 23.1 µM
C/C(=N/Nc1ccc([N+](=O)[O-])cc1)c1c[nH]c2ccccc12,–,"inconclusive: 18.3 µM [activator, single point]"
Cc1cc(C(=O)OC(C)C(=O)Nc2nc(-c3ccccc3)cs2)c(C)o1 (configuration not stated),inactive: -13.1%,–
COc1ccc(C(=O)N2CC(=O)N(CCc3ccccc3)C(=O)C2)cc1OC,inactive: 7.74%,–
COc1ccc(N(C)S(=O)(=O)c2ccc(Cl)c(C(=O)NCCc3ccc(Cl)cc3)c2)cc1,–,"inconclusive: 23.1 µM [inhibitor, single point]"
O=[N+]([O-])/C=C\c1ccc(N2CCCC2)c(F)c1,–,"inconclusive: 10.3 µM [activator, partial curve]"
Cc1nc(-c2ccc(Cl)cc2)sc1C1(C)CC(c2cccc(F)c2)=NO1 (configuration not stated),–,"inconclusive: 23.1 µM [activator, single point]"
Cc1ccc(NC(=O)CN(C)S(=O)(=O)c2cnc[nH]2)c(C)c1,inactive: 2.65%,–
CCOC(=O)c1cccc(NC(=O)CSc2nc3ccccc3c(=O)n2CCOC)c1,–,active: 20.6 µM
N#CCCN1C(=O)C2(OCCO2)c2ccccc21,inactive: -6.87%,–
CCc1noc(C)c1C(=O)Nc1ccc(C(F)(F)F)cc1,inactive: -3.6%,–
CC(=O)Nc1ccc(N=Cc2nc(-c3ccc(C)cc3)oc2O)cc1,–,"inconclusive: 20.6 µM [activator, partial curve, poor fit]"
O=C(NC(=S)Nc1cc([N+](=O)[O-])ccc1O)c1ccc2c(c1)OCO2,–,"inconclusive: 2.06 µM [activator, partial curve]"
O=C(Cn1ccc([N+](=O)[O-])n1)NCc1ccco1,–,"inconclusive: 1.78 µM [activator, partial curve, poor fit]"
O=C(Nc1ccc2c(c1)nc1n2CCSC1)c1ccccc1,–,"inconclusive: 2.59 µM [activator, partial curve]"
COCCN1CCN(C(=O)c2cc(COc3ccc(F)cc3Cl)on2)CC1,–,"inconclusive: 20.6 µM [activator, single point]"
COC(=O)C(C(=O)OC)C(C(=O)OC)C(C(=O)OC)C(=O)OC,–,"inconclusive: 29.1 µM [activator, partial curve, poor fit]"
Cn1nc(-c2ccc(Cl)cc2)nc2c(=O)n(C)c(=O)nc1-2,–,"inconclusive: 7.31 µM [activator, partial curve]"

Compound,"activity change, negative = inhibition",Potency
O=C(N/N=C/c1ccc([N+](=O)[O-])o1)c1ccc(O)cc1,inactive: -19.9%,–
Cc1ccc(OC(=O)c2ccc(C)c([N+](=O)[O-])c2)cn1,inactive: 3.46%,–
C(=C\c1nnc2c3ccccc3ncn12)/c1ccccc1,–,"inconclusive: 2.59 µM [activator, partial curve]"
Cc1nn(-c2ccc([N+](=O)[O-])cc2)c(N)c1-c1ccccc1,–,"inconclusive: 1.83 µM [activator, full curve]"
CCOC(=O)c1ccn(-c2nc(-c3ccco3)cc(C(F)(F)F)n2)n1,–,"inconclusive: 16.4 µM [inhibitor, partial curve, poor fit]"
NS(=O)(=O)c1ccc(NC(=O)COC(=O)c2c3c(nc4ccccc24)/C(=C\c2ccc4c(c2)OCO4)CCC3)cc1,–,active: 20.6 µM
COc1ccc(CCNC(=O)c2nnn(-c3cc(C)cc(C)c3)c2N)cc1OC,–,"inconclusive: 35.5 µM [inhibitor, single point]"
Cc1ccc(NC(=O)c2ccc(OC(=O)COc3ccc(Cl)cc3C)cc2)cc1,–,"inconclusive: 9.2 µM [activator, partial curve]"
CCOC(=O)[C@H]1[C@H]2COc3ccc(OC)cc3[C@@H]2N2C(=O)c3cc(OC)ccc3NC(=O)[C@@]12C,inactive: 1.96%,–
O=C(N/N=C/c1cc(Cl)ccc1O)c1ccc(Br)cc1,–,"inconclusive: 2.06 µM [inhibitor, partial curve, poor fit]"
COc1ccccc1Oc1ccc(N/C=C2/CCCC2=O)cc1,–,"inconclusive: 11.6 µM [activator, partial curve, poor fit]"
Cc1c(NC2=NC(C)(C)Cc3ccccc32)c(=O)n(-c2ccccc2)n1C,–,"inconclusive: 16.4 µM [activator, single point]"
O=C(O)/C=C/c1cn(-c2ccccc2)nc1-c1ccc2c(c1)OCCO2,–,"inconclusive: 20.6 µM [activator, single point]"
COc1ccc(-c2oc(=O)c3cc(OC)c(OC)cc3c2/C=C/c2ccc([N+](=O)[O-])cc2)cc1,inactive: -4.88%,–
CCOc1ccc(-c2cn3ccccc3n2)cc1[N+](=O)[O-],–,"inconclusive: 9.2 µM [activator, partial curve]"
CCCCCOC(=O)NCC(O)c1ccccc1 (configuration not stated),–,"inconclusive: 29.1 µM [activator, partial curve, poor fit]"
O=C1C2CC=C(Cl)CC2C(=O)N1CNc1ccccn1 (configuration not stated),–,"inconclusive: 4.11 µM [activator, single point]"
COC(=O)CCC(=O)c1oc2ccc(Cl)cc2c1NC(=O)CCCN1C(=O)c2ccccc2C1=O,–,active: 4.61 µM
CN(c1cccc(NC(=O)CN(c2ccc(Cl)c(Cl)c2)S(=O)(=O)c2ccccc2)c1)S(C)(=O)=O,–,active: 16.4 µM
O=C(Nc1ccc(Br)cc1)c1cc(-c2ccncc2)nc2ccccc12,–,"inconclusive: 23.1 µM [inhibitor, partial curve, poor fit]"
Cc1ccccc1Nc1nc(-c2sc(NC(=O)c3ccc([N+](=O)[O-])cc3)nc2C)cs1,–,"inconclusive: 8.2 µM [inhibitor, partial curve]"
COc1ccc(Cl)cc1NC(=O)C(=O)N/N=C/c1cc(C)n(-c2ccc(C)cc2)c1C,inactive: 8.38%,–
COc1ccc(NC(=O)CN(C)CC(=O)NCCc2ccc(F)cc2)cc1,inactive: -1.55%,–

Compound,"activity change, negative = inhibition",Potency
O=C(CNC(=O)Cc1ccccc1)N=Nc1c(O)n(Cc2ccc3c(c2)OCO3)c2ccccc12,–,"inconclusive: 25.9 µM [inhibitor, partial curve]"
Cc1ccc(S(=O)(=O)C2(C(=O)NCc3ccc4c(c3)OCO4)CC2)cc1,–,"inconclusive: 29.1 µM [inhibitor, single point]"
Cc1nn(-c2ccccc2)c(C)c1C(=O)OC(C)C(=O)NC1CCCCC1 (configuration not stated),–,"inconclusive: 8.2 µM [inhibitor, partial curve]"
CC[C@]12c3[nH]c4cc(-c5ccco5)ccc4c3CCN1C(=O)[C@@H](CC(=O)NCCc1ccccn1)C[C@@H]2C(=O)N1CCN(C(=O)c2ccco2)CC1,inactive: -17.1%,–
COc1ccc(Cl)cc1NC(=O)CN(C)C(=O)c1ccc(COc2ccccc2)cc1,inactive: 0%,–
COc1ccc(Nc2cnn(-c3nc4ccccc4s3)c(=O)c2Cl)cc1,–,"inconclusive: 2.31 µM [activator, partial curve]"
COc1ccc(N/N=C(\C#N)C(=N)SCc2ccccc2)cc1,–,"inconclusive: 20.6 µM [inhibitor, partial curve, poor fit]"
O=C(Nc1ccc2oc(-c3ccccc3)nc2c1)c1cccnc1,–,"inconclusive: 14.6 µM [activator, partial curve]"
O=C(Nc1ccccc1)N(C1=NCCCCS1)c1cccc2ccccc12,–,"inconclusive: 18.4 µM [activator, partial curve, poor fit]"
CC(=O)c1ccccc1NC(=O)c1ccc(OCc2c(C)noc2C)cc1,–,"inconclusive: 18.3 µM [inhibitor, single point]"
Cc1ccc(S(=O)(=O)Nc2cccc3cccnc23)cc1,–,"inconclusive: 25.9 µM [inhibitor, partial curve, poor fit]"
OCCC1CN(Cc2cccn2-c2ncccn2)CCN1CCc1ccccc1 (configuration not stated),inactive: -2.65%,–
Cc1nc2nc(SCC(=O)N3CCOCC3)nn2c(C)c1Cc1ccccc1,–,"inconclusive: 3.26 µM [activator, partial curve, poor fit]"
C=CCNCC(=O)Nc1sc2c(c1C(=O)Nc1ccc(OC)cc1OC)CCC2,–,active: 20.6 µM
COc1ccc(C)cc1NC(=O)c1cc(-c2ccccc2)nc2c1cnn2C(C)C,–,"inconclusive: 29.1 µM [inhibitor, single point]"
Cc1cc(O)c2c(CN3CCN(Cc4ccccc4)CC3)cc(=O)oc2c1,–,"inconclusive: 23.1 µM [inhibitor, single point]"
COc1cccc(NC(=O)CN2CCCCCC2)c1,–,"inconclusive: 16.4 µM [activator, single point]"
C/C(=N\Nc1ccc(C(=O)O)cc1)c1ccc(S(=O)(=O)NCc2ccco2)cc1,–,"inconclusive: 18.3 µM [activator, partial curve]"
O=C(NCc1ccccc1)c1csc(-c2cccnc2)n1,–,active: 5.8 µM
CC(Oc1ccc2c3c(c(=O)oc2c1)CCC3)C(=O)NCc1cccnc1 (configuration not stated),inactive: 21.8%,–
COc1ccc(F)c(-c2nc(CN3CCN(C(=O)c4ccco4)CC3)c(C)o2)c1,–,"inconclusive: 32.6 µM [inhibitor, single point]"

# Reformatted with bars between the fields: entries from further up
Compound | activity change, negative = inhibition | Potency
CC[C@]12c3[nH]c4cc(-c5ccco5)ccc4c3CCN1C(=O)[C@@H](CC(=O)NCCc1ccccn1)C[C@@H]2C(=O)N1CCN(C(=O)c2ccco2)CC1 | inactive: -17.1% | –
COc1ccc(Cl)cc1NC(=O)CN(C)C(=O)c1ccc(COc2ccccc2)cc1 | inactive: 0% | –
